This data set can be described thus: Evaluation of carrier mobility of organic thin film transistor (FET element). The note with it: organic thin film transistor with 50 nm organic semiconductor film of the compound; −80 V source-drain, gate 20 V to −100 V.

Our source for the Carrier mobility values is patent publication US10131656B2, “Organic thin film transistor, method of manufacturing organic thin film transistor, organic thin film transistor material, organic thin film transistor composition, organic semiconductor film, and compound” (FUJIFILM Corporation, priority 2015, dated 2018).

As for `CCCCCCCCCCC(CCCCCCCC)CCn1c(=O)c2ccc3c4ccc5c(=O)n(CCC(CCCCCCCC)CCCCCCCCCC)c(=O)c6cc7sc8cc(c1=O)c2c3c8c7c4c56` (centres unmarked) [Comparative Compound 1], the Carrier mobility result is on record as “C (those having carrier mobility of less than 10^−4 cm^2/Vs were evaluated as “C”)”. For `S=c1c2ccc3c4ccc5c(=S)n(C6CCCCC6)c(=S)c6cc7sc8cc(c(=S)n1C1CCCCC1)c2c3c8c7c4c56` [Example Compound 3], the Carrier mobility result is “A (Those having carrier mobility of 10^−2 cm^2/Vs or greater were evaluated as “A”)”.
